Data reported in paper PMC8422350.
No constants are given. Whether binding was seen depends on the method and setting. In cells and extracts the contact can be indirect. Here binding means that the protein was enriched with, or labelled near, the bait; the list need not be complete.

By UniProt entry, the sequences of proteins in these tests, tags left out.
UniProt Q99JF8: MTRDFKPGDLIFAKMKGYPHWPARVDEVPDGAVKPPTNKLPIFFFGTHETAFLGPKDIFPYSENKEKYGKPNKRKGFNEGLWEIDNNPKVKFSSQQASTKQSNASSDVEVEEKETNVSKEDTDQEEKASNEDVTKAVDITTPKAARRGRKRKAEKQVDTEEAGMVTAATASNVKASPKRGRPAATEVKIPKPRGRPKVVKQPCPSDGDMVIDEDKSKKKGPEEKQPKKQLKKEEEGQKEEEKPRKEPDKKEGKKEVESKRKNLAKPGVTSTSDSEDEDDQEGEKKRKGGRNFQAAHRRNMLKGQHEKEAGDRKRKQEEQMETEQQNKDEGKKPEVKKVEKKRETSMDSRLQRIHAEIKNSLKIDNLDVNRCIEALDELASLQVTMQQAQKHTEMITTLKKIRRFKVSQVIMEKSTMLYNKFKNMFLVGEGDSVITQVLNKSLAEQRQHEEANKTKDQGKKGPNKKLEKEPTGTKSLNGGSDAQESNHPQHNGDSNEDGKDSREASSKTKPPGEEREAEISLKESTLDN

What was measured:
[1] = biological target: PC4 and SF2 interacting protein (PSIP1/LEDGF), longer isoform p75, endogenous (mouse (endogenous in MEFs and mESCs)) (UniProt Q99JF8); assay: affinity purification with mass spectrometry; SILAC-IP-MS in mESCs: nuclear extracts in RIPA buffer with Benzonase; rabbit IgG (R0K0), anti-MOF (R6K4) and anti-PSIP/p75 (R10K8) on Protein A Dynabeads, 4°C 30 min, beads combined after the first wash; ratio over IgG
[2] = biological target: PC4 and SF2 interacting protein (PSIP1/LEDGF), longer isoform p75, endogenous (mouse (endogenous in MEFs and mESCs)) (UniProt Q99JF8); assay: affinity purification with mass spectrometry; SILAC-IP-MS in MEFs: nuclear extracts in RIPA buffer with Benzonase; rabbit IgG (R0K0), anti-MOF (R6K4) and anti-PSIP/p75 (R10K8) on Protein A Dynabeads, 4°C 30 min, beads combined after the first wash; ratio over IgG

B1: Cell division cycle-associated 7-like (protein, UniProt Q922M5 1-438)
chain: MELATRSQIPKEVADIFSAPSDDEEFVGFQDDVPMQNLSESCGSLDSRELEKQQNVCFRSKYFTEELRRIFKEDTDSEMEDFEGFTESELNMSSNPELMESELSDSDKAYPVMNDAEEDDEEEAAPRRGRSTRRSSFGLRVAFQFPTKKLARTPDKDSSHLLDSKTDLRRKKSSRQPKGKEDSASDAEDESRAESQENSDALLKRAMNIKENKAMLAQLLAELNSVPDFFPVRTPPSASRRRTPRRAFSEGQITRRMNPTRSARPPEKFALENFTFSATKLTEELYSFRRRKTISGGKCQTYRRHRISSFRSVKDITEEDLENIAITVRDKVYDKVLGNTCHQCRQKTIDTKTVCRNQSCGGVRGQFCGPCLRNRYGEDVRTALLDPKWTCPPCRGICNCSYCRRRDGRCATGILIHLAKFYGYDNVKEYLESLQKQL
binding [1]: binds | binding [2]: binds
